Measurements reported in paper PMC11796423.

Chains of the proteins cited; added tags and fusions are not shown. Lines headed by an entry give the natural chain unless they say otherwise; changes in a name come on top. Residues count along the entry.
UniProt Q99075, residues 20-208: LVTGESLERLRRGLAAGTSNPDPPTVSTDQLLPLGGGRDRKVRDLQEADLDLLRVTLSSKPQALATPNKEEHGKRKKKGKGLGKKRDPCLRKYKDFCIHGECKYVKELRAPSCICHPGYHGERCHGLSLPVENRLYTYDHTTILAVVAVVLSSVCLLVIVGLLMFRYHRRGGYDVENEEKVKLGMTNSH
UniProt P16070, residues 21-742: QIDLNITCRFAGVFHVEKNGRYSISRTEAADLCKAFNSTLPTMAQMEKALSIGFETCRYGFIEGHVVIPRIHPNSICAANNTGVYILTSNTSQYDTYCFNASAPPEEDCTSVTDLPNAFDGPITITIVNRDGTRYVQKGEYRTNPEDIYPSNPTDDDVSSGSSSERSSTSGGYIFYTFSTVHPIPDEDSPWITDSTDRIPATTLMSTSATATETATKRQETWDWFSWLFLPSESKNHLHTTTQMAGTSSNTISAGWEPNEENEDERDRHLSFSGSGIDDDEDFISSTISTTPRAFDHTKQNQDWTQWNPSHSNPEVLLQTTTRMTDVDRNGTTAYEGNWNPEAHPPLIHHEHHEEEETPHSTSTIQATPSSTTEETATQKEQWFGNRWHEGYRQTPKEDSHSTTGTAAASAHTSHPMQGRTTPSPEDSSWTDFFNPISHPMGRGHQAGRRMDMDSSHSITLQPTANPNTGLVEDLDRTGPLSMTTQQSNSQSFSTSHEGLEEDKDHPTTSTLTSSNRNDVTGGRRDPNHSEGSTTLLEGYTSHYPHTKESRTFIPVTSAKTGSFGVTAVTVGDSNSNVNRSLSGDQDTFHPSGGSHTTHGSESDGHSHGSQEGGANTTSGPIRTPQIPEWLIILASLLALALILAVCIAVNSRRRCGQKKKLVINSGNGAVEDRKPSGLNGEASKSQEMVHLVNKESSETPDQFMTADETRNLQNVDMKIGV
UniProt P00588: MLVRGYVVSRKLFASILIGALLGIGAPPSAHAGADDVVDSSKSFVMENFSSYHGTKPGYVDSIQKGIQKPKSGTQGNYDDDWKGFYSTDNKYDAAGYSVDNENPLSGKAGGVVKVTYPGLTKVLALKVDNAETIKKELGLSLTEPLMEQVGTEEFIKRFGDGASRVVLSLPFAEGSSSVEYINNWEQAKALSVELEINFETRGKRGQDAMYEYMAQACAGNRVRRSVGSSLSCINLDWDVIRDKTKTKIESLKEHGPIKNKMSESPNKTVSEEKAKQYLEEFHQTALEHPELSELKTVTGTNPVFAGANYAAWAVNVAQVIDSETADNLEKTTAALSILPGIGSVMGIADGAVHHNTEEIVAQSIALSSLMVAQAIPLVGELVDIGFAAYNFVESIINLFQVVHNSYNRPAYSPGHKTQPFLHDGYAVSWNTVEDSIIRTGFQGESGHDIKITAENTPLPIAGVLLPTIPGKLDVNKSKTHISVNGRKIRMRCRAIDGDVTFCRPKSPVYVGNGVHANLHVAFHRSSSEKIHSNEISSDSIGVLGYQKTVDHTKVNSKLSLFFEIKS

Columns and labels:
[1] = target: HBEGF overexpressed in ARN8 cells (ARN8:HBEGF^+) (UniProt Q99075); experiment: proximity labelling; 150 nM recombinant protein and 50 µM biotin with RIPA lysate supernatant of ARN8 cells (legend: suspended cells), 10 minutes at RT; western blot with streptavidin and anti-HB-EGF; only the binder purified
[2] = target: CD44 (human (endogenous in ARN8)) (UniProt P16070); experiment: proximity labelling; only the binder purified
[3] = target: T1, CD81 (human (endogenous in ARN8)) (UniProt P60033); experiment: proximity labelling; only the binder purified
T1 sequence: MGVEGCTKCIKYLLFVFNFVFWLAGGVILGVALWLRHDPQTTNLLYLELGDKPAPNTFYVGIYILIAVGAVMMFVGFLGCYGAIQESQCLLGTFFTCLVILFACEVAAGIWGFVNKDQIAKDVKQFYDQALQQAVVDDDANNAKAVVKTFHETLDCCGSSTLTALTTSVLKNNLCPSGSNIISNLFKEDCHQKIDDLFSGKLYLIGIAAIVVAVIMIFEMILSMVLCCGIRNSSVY

Measured: binding

dtR-TurboID (receptor-binding domain of diphtheria toxin N-terminal to TurboID) (from UniProt P00588) (domain or fragment)
binds: all assays above

These are yes or no findings as the source states them, for the method shown. Binding seen in cells or lysates may run through a third protein. Here binding means that the protein was enriched with, or labelled near, the bait; the list need not be complete.
